Source: PubChem BioAssay AID2685 (National Center for Advancing Translational Sciences (NCATS), 2010)
Out of some 320,000 compounds screened, about 2,100 (0.66%) were called active. The inconclusive results got no clear call from the source; some entries with a clear call stand among them for comparison. Calls come from the whole dose curve; as a rule, active = well fitted inhibition curve with a large enough effect in the signal ratio, with a control signal flat (not every such curve was filed as active); inconclusive = small, poorly fitted or top-dose-only effect, or effect the other way, or a change in a side signal; inactive = flat fitted curve, though single readings scatter; the % refers to the signal ratio. Potencies beside an inconclusive call are fits to weak or partial responses and may not hold up.

Assay: qHTS Assay for Lipid Storage Modulators in Drosophila S3 Cells
Details: BODIPY lipid droplet fluorescence, 18-24 h, cells fed with added oleic acid; lipid storage change, negative = inhibition: at 46.1 µM (top of the series) unless noted
Summary of the method: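 Drosophila S3 cells loaded with oleic acid (400 uM, as added) and compounds at several concentrations; lipid droplets imaged by 488-nm laser-scanning cytometry, 500–530 nm intensity and object ratio to cell channel. Percent activity normalized to 20 uM Triacsin C.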
% is set by controls: 0 for no effect and ±100 for the full control effect; potency is the fitted concentration of half-maximal effect.

Row | Structure (SMILES) | Potency | lipid storage change, negative = inhibition
1 | N#C/C(=C\c1sc(N2CCOCC2)nc1-c1ccccc1)C(=O)Nc1cccc2ccccc12 | inconclusive: 29.1 µM [activator, single point] | –
2 | COc1ccccc1CNC(=O)c1cnccn1 | inconclusive: 18.4 µM [falling, single point] | –
3 | CCCn1nc(C(=O)OCC(=O)Nc2cccc(OC)c2)c2ccccc2c1=O | – | inconclusive: 19.6%
4 | CCOC(=O)N1CCN(C(=O)CCCCCn2c(=S)[nH]c3ccsc3c2=O)CC1 | – | inactive
5 | COc1ccc(OCC(O)CN(CCO)CC(O)Cn2ccc3ccccc32)cc1 (stereo not drawn) | – | inconclusive: 0.459%
6 | COc1cc(C(=O)OCc2cccc(OC)c2OC)ccc1OCC(=O)N1CCOCC1 | inconclusive: 4.61 µM [activator, single point] | –
7 | CCn1c(SCC(=O)N/N=C/c2ccc(C)o2)nnc1-c1ccccc1 | – | inconclusive: 51.5%
8 | COc1ccc(-c2nc(=S)c3c([nH]2)Oc2ccc(C)cc2C3)cc1O | inconclusive: 20.6 µM [falling, single point] | –
9 | O=C1CCN(Cc2ccccc2)CCN1[C@H](COc1ccccc1)Cc1ccccc1 | – | inconclusive: -32.5%
10 | COc1ccc(C(=O)NCCCCCC(=O)N/N=C/c2ccco2)cc1OC | – | inconclusive: 18.7%
11 | CN(C(=O)COC(=O)c1ccc2c(=O)n3c(nc2c1)CCC3)C1CCS(=O)(=O)C1 (stereo not drawn) | – | inconclusive: -11.9%
12 | O=C(/C=C/Nc1ccc(Br)cn1)c1cccc(OC(F)F)c1 | – | inactive
13 | Cc1cc(C)n2nc(C(=O)N3CCCC(Nc4ccc(F)c(F)c4)C3)cc2n1 (stereo not drawn) | inconclusive: 2.06 µM [falling, partial curve, poor fit] | –
14 | COc1ccccc1-c1coc2cc(O)cc(O)c2c1=O | – | inconclusive: -34.7%
15 | CCOC(=O)c1c2ccc(OCC(=O)N/N=C/c3ccc(C)cc3)cc2n2ccccc12 | – | inconclusive: 333%
16 | O=C(O)COc1ccc(/C=C/C(=O)c2ccc(C3CCCCC3)cc2)cc1 | – | inconclusive: -0.987%
17 | O=C(c1cc(-c2cccs2)on1)N1CCN(c2ccccc2)CC1 | – | inconclusive: 10.3%
18 | Cc1ccc([C@@H]2[C@@H]3C(=O)N(C)C(=O)[C@@H]3[C@]3(C)C(=O)N(Cc4ccccc4)CC(=O)N23)o1 | inconclusive: 0.116 µM [activator, full curve, poor fit] | –
19 | Nc1ncnc2c1ncn2[C@@H]1O[C@H](COP(=O)(O)O)[C@@H](O)[C@H]1O | – | inconclusive: -14.5%
20 | O=C(Cc1ccccc1)N1CCN(S(=O)(=O)c2ccc([N+](=O)[O-])cc2)CC1 | – | inconclusive: 19.7%
21 | COc1ccc2cc(C#N)c(N3CCOCC3)nc2c1 | – | inconclusive: -8.12%
22 | COc1cc(OC)cc(C(=O)NCC(=O)OCc2ccc(Cl)c(Cl)c2)c1 | – | inconclusive: 36.2%
23 | Oc1c(Br)cc(Br)cc1C=Nc1cccnc1 | – | inconclusive: 32%
24 | O=C(NCCN1CCCC1)c1cc(-c2ccncc2)nc2ccc(S(=O)(=O)N3CCOCC3)cc12 | inconclusive: 29.1 µM [activator, single point] | –
25 | Cn1c(=O)c2c(nc(Br)n2CCSc2ncccn2)n(C)c1=O | – | inconclusive: 4.38%
26 | C/C(=N\NC(=O)c1ccc([N+](=O)[O-])c(C)c1)c1ccccc1Cl | – | inconclusive: -16.1%

Row | Structure (SMILES) | Potency | lipid storage change, negative = inhibition
27 | COCc1ccc(-c2ccc3c(c2)c(C#Cc2ccsc2)c(-c2cc(OC)cc(OC)c2)n3C)cc1 | inconclusive: 10.3 µM [activator, single point] | –
28 | CCN(Cc1ccccc1)S(=O)(=O)c1ccc(C(=O)N(CCCN(C)C)c2nc3cc4c(cc3s2)OCO4)cc1 | inconclusive: 29.1 µM [falling, single point] | –
29 | OC1CCN(Cc2cccc3ccccc23)CC1 | – | inconclusive: -19.4%
30 | CCc1ccc2c(c1)c1nc(C)sc1n2CC | – | inconclusive: 7.12% [at 9.22 µM]
31 | CC(C)c1nc2oc3c(N4CCN(C)CC4)ncnc3c2c2c1CCC2 | – | inconclusive: 8.06%
32 | C=CCN(CC=C)C(=O)Nc1cc(Cl)ccc1OC | – | inconclusive: 4.78%
33 | COc1ccc(C2NS(=O)(=O)OCC2C)cc1 (stereo not drawn) | – | inconclusive: -3.02%
34 | Cc1cc(C(=O)CCl)c(C)n1CCc1ccc(Cl)cc1 | – | inconclusive: -44.9% [cytotoxic] [at 0.00295 µM]
35 | CN1CCN(C(=O)c2ccc3c(c2)N(Cc2ccc(F)cc2)C(=O)c2ccccc2S3=O)CC1 (stereo not drawn) | – | inconclusive: -58.9%
36 | O=C(O)CC1SC(=O)N(CC(=O)c2ccccc2)C1=O (stereo not drawn) | – | inconclusive: 39.9%
37 | CCOCCCN1C(=O)CN(C2CCC(C)CC2)C(=O)C1c1ccc(C)cc1 (stereo not drawn) | – | inconclusive: 32.1%
38 | Cc1cc(C(=O)Nc2cccc(-c3ccc(N4CCOCC4)nn3)c2)ccc1[N+](=O)[O-] | inconclusive: 9.2 µM [rising, partial curve] | –
39 | COc1ccc(N2CC(C(=O)Nc3cccc(S(=O)(=O)N4CCCC4)c3)CC2=O)c(OC)c1 (stereo not drawn) | inconclusive: 6.51 µM [falling, single point] | –
40 | O=c1cc(NCc2ccco2)[nH]c(=O)n1-c1ccc(Br)cc1 | – | inactive
41 | Cc1cc(O)c(C(=O)/C=C/c2ccccc2)c(=O)o1 | inconclusive: 6.51 µM [falling, single point] | –
42 | CC(=O)c1ccc(NC(=O)CSc2nnc(-c3ccncc3)o2)cc1 | – | inconclusive: 33.3%
43 | CCOC(=O)c1c(C)[nH]c(C(=O)COC(=O)/C=C/c2ccc(O)c(OC)c2)c1C | – | inconclusive: -57%
44 | CC[n+]1c(/C=C(\C)OC)sc2ccccc21 | – | inconclusive: 4.74%
45 | Cn1c(C(=O)O)c(CC(=O)Nc2ccccc2F)c2ccccc21 | – | inconclusive: 6.72%
46 | O=C(/C=C/c1ccccc1Cl)Nc1cccc(O)c1 | – | inconclusive: 3.9%
47 | O=C(NN1CC(C(=O)OCc2ccc(Cl)cc2Cl)CC1=O)c1ccccc1 (stereo not drawn) | inconclusive: 29.1 µM [activator, single point] | –
48 | C/C(N)=C(/C#N)C(=O)CSc1nnnn1-c1ccc(C)cc1C | – | inconclusive: -7.5%
49 | COCCN(CCOC)S(=O)(=O)c1ccc(OC)cc1 | – | inconclusive: -101%
50 | Cc1onc(-c2c(F)cccc2Cl)c1C(=O)NCc1ccccc1 | – | inconclusive: 12.2%
51 | CCOC(=O)Cn1c(S(=O)(=O)Cc2ccc(Cl)cc2)nc(-c2ccccc2)c1-c1ccccc1 | – | inconclusive: 2.28%
52 | CC(=O)NC(=S)Nc1ccc(S(=O)(=O)N2CCOCC2)cc1 | – | inconclusive: -20%

Row | Structure (SMILES) | Potency | lipid storage change, negative = inhibition
53 | c1ccc(C2Nc3ccccc3-c3nc4ccccc4n32)cc1 (stereo not drawn) | inconclusive: 0.291 µM [activator, partial curve] | –
54 | CN(C)C1(CNCC(O)c2ccccc2)CCCCC1 (stereo not drawn) | inconclusive: 2.91 µM [activator, full curve, poor fit] | –
55 | COc1cc(NC(=O)c2cccs2)ccc1NC(=O)c1cc2ccccc2o1 | – | inconclusive: 16.9% [at 9.22 µM]
56 | CCOc1ccc(OCC)c(NC(=O)CN(C)S(=O)(=O)c2cccc3nsnc23)c1 | – | inconclusive: 19.4%
57 | NC(=O)c1c(NC(=O)C2CCCO2)sc2c1CCCCC2 (stereo not drawn) | – | inconclusive: 26.6%
58 | CC1(C)N(O)CC(c2cccs2)=[N+]1[O-] | – | inconclusive: -12.2%
59 | COc1ccc2cc[nH]c2c1 | – | inconclusive: 0.13%
60 | COc1cc(C(=O)OCC(=O)Nc2c(F)c(F)c(F)c(F)c2F)cc(OC)c1OC | – | inconclusive: -10.3%
61 | CCOc1ccc(NC(=O)CSc2nnc(C(C)C)n2CC)cc1 | – | inconclusive: -1.82%
62 | CC(Oc1ccc(-c2ccccc2)c(F)c1)c1ccn(S(=O)(=O)c2ccc(Cl)cc2)n1 (stereo not drawn) | – | inconclusive: 16.7%
63 | Cc1ccc(C(=O)CC(=O)c2ccccc2)cc1 | – | inconclusive: -4.61%
64 | Cc1cc(=O)nc2c3ccccc3n(C(C)C(=O)Nc3cc(F)ccc3F)n12 (stereo not drawn) | – | inconclusive: 25.1%
65 | C=CCn1c(SCC(=O)Nc2ccc(F)cc2)nc2cc(C(=O)O)ccc2c1=O | – | inconclusive: -43%
66 | O=C(Nc1ccccc1C(=O)NCC1CCCO1)c1ccc(Cl)cc1 (stereo not drawn) | – | inconclusive: 7.16%
67 | O=C(C1=C(O)C(=O)N(CC2CCCO2)C1c1ccccc1[N+](=O)[O-])c1ccco1 (stereo not drawn) | – | inconclusive: 71.1%
68 | NCCc1ccn[nH]1 | – | inconclusive: -15.7%
69 | CCN1CCN(CC(=O)Nc2cc(C(F)(F)F)ccc2OCCOC)CC1 | – | inconclusive: -8.67%
70 | O=S(=O)(c1cccc2cccc(Cl)c12)N1CCCC1 | – | inconclusive: 99.4%
71 | CCOc1ccc(NC(=O)CN(C)C(=O)Cc2c(C)nc3ccccc3c2C)cc1OCC | inconclusive: 0.411 µM [activator, single point] | –
72 | C=CCN(CC=C)S(=O)(=O)c1ccc(C(=O)Nc2sc3c(c2C(N)=O)CCCCC3)cc1 | – | inconclusive: -22.2%
73 | CCOc1ncccc1C(=O)N(CC)CC(=O)NCc1ccc(Cl)cc1 | inconclusive: 0.116 µM [falling, full curve, poor fit] | –
74 | O=C(Nc1cccnc1N1CCOCC1)c1cc2ccccc2oc1=O | inconclusive: 9.2 µM [activator, partial curve, poor fit] | –
75 | CCOC(=O)N=Nc1c(O)n(CC)c2ccccc12 | inconclusive: 20.6 µM [activator, single point] | –
76 | Cn1cc(C(=O)NS(=O)(=O)Nc2ccc(Br)cc2)c2ccccc21 | inconclusive: 20.6 µM [activator, partial curve] | –
77 | Cc1cc(C)cc(N(CC(=O)O)S(=O)(=O)c2c(C)noc2C)c1 | active: 23.1 µM | –
78 | NC(=O)Nc1ccccc1C(=O)Nc1ccc2ccccc2c1 | – | inconclusive: -6.44%
